In US11773093B1, “N-(pyrimido[2,3-b]indol-7-yl)acetamide compounds as antibacterial agents” (KING FAISAL UNIVERSITY, priority 2023, dated 2023):
Values after ≈ are worked out from the molar mass of the structure shown.

What was measured:
Assay in all cases: In vitro antibacterial activity (MIC, CLSI M07-A10 dilution)
Assay type in all cases: cell-based
[1] = system: Escherichia coli MTCC 443; conditions: MTCC443
[2] = system: Staphylococcus aureus ATCC 29213; conditions: ATCC29213
[3] = system: Staphylococcus epidermidis
[4] = system: Staphylococcus aureus ATCC BAA-1556 (MERSA resistant); conditions: ATCCBAA1556

## CN[C@H](CC(C)C)C(=O)N[C@H]1C(=O)N[C@@H](CC(N)=O)C(=O)N[C@H]2C(=O)N[C@H]3C(=O)N[C@H](C(=O)N[C@H](C(=O)O)c4cc(O)cc(O)c4-c4cc3ccc4O)[C@H](O)c3ccc(c(Cl)c3)Oc3cc2cc(c3O[C@@H]2O[C@H](CO)[C@@H](O)[C@H](O)[C@H]2O[C@H]2C[C@](C)(N)[C@H](O)[C@H](C)O2)Oc2ccc(cc2Cl)[C@H]1O [Vancomycin, reference compound]
[1]
  MIC: > 128 µg/mL
[2]
  MIC: 1 µg/mL (≈ 0.69 µM)
[3]
  MIC: 1 µg/mL (≈ 0.69 µM)
[4]
  MIC: 1 µg/mL (≈ 0.69 µM)
